Some of the results follow. Most entries show no effect beyond the scatter of the controls.

Protein sequences, listed by entry. Tags and fused reporters are not part of them. Lines headed by an entry give the natural chain unless they say otherwise; changes in a name come on top.
UniProt P75796: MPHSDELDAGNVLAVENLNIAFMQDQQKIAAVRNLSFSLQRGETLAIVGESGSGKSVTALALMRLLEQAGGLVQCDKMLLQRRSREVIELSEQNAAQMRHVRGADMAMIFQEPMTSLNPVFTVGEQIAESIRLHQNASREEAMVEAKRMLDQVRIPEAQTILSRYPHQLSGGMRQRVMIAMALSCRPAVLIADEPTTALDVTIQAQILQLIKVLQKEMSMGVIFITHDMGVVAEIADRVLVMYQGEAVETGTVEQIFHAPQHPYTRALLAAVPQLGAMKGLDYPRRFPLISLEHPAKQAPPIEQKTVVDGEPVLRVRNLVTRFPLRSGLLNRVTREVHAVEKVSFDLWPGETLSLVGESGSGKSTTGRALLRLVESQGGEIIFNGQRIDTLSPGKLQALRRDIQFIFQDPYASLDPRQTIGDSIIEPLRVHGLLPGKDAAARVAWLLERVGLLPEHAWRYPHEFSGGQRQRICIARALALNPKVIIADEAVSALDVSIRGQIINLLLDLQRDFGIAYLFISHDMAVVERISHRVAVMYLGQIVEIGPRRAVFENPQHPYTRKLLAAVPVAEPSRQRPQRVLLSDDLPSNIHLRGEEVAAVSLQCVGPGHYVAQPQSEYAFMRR
UniProt P52096: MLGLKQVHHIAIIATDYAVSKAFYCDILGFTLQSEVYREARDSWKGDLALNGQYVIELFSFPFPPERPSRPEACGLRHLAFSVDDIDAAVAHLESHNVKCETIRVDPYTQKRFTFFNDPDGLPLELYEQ
UniProt P69423: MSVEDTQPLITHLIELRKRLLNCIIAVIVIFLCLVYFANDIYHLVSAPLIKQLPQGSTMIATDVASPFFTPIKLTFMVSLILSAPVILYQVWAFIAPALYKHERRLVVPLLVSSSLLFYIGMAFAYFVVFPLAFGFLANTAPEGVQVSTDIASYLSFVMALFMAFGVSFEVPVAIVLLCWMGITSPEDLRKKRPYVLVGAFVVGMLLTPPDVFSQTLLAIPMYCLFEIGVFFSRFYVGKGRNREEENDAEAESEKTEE
UniProt P75672: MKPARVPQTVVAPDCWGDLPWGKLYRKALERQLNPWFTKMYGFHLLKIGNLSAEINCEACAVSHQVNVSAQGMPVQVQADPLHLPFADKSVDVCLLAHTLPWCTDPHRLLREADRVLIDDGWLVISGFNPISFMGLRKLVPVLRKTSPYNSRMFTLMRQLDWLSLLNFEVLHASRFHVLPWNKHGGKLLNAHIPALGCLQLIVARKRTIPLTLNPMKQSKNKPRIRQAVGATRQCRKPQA
UniProt P52086: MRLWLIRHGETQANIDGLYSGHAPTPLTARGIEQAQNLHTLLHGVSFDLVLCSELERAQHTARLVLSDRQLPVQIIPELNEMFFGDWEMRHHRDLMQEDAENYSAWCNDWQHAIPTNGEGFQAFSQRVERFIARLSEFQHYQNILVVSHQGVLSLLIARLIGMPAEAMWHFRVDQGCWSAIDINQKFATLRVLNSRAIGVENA
UniProt P52074: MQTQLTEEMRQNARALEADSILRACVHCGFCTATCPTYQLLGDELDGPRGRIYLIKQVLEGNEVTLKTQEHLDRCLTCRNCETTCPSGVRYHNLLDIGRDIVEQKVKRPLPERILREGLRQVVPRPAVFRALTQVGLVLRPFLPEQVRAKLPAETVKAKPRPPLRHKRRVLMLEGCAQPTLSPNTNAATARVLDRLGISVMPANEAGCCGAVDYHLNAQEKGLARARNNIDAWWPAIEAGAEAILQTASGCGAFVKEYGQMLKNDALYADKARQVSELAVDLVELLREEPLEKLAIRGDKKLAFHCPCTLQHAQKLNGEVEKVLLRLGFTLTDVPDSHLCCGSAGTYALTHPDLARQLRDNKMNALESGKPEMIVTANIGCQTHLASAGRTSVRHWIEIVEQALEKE
UniProt P67910: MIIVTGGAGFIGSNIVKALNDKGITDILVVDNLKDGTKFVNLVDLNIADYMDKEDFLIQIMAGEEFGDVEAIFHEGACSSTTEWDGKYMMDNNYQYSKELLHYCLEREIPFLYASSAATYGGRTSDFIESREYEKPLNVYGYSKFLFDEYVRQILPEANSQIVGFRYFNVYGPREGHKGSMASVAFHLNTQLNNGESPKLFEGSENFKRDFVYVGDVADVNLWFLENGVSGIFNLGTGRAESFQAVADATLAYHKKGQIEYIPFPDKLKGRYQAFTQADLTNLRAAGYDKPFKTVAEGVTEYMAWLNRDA
UniProt P46859: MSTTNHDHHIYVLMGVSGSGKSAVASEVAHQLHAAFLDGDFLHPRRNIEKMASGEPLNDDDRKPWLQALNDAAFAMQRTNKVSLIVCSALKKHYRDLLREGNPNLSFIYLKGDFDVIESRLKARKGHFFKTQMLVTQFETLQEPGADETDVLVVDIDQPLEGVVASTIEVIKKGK
UniProt P52052: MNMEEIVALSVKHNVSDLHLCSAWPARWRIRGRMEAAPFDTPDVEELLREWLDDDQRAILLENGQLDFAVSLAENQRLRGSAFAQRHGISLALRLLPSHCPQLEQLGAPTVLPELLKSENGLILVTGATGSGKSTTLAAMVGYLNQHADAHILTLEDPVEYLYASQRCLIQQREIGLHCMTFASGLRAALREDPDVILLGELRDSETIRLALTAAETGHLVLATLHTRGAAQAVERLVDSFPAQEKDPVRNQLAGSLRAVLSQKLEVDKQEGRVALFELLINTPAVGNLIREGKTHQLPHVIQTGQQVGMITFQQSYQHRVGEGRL
UniProt P46887: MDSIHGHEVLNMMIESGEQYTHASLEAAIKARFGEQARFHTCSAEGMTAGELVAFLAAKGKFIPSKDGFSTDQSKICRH
UniProt P75694: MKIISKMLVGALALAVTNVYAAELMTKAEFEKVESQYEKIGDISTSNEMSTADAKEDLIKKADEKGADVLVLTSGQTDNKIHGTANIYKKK
UniProt P61887: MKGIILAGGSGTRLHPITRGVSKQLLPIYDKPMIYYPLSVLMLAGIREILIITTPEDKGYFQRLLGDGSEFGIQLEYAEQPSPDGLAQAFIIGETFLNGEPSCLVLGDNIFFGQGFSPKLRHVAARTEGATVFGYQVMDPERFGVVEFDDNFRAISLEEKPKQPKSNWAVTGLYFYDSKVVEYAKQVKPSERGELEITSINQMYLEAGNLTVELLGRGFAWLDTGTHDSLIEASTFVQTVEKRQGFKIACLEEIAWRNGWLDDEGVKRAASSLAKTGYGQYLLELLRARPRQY
UniProt P67662: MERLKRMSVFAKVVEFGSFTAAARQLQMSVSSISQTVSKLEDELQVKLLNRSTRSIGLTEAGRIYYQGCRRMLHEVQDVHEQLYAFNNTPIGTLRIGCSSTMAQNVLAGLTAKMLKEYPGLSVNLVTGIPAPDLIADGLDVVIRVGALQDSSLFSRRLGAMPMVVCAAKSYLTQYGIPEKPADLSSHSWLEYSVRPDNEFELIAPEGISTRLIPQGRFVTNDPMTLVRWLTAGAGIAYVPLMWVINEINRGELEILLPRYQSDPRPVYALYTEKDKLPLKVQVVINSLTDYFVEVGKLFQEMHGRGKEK
UniProt P75822: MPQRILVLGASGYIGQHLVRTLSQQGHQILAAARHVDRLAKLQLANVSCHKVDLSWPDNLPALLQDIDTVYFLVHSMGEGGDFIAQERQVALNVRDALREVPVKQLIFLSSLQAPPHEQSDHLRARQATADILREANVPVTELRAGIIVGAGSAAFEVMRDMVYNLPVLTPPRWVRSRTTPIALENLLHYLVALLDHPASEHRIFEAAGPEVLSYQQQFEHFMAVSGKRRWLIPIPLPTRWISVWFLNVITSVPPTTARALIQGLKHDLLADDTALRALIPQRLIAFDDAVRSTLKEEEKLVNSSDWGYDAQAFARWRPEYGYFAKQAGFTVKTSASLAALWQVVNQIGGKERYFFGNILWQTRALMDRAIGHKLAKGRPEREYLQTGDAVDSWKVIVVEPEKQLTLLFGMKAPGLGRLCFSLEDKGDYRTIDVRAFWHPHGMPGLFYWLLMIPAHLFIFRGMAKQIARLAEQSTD
UniProt P69789: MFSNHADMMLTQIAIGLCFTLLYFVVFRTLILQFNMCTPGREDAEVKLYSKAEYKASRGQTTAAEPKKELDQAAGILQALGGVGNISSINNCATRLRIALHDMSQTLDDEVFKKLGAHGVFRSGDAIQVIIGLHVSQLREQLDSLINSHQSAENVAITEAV
UniProt P75800: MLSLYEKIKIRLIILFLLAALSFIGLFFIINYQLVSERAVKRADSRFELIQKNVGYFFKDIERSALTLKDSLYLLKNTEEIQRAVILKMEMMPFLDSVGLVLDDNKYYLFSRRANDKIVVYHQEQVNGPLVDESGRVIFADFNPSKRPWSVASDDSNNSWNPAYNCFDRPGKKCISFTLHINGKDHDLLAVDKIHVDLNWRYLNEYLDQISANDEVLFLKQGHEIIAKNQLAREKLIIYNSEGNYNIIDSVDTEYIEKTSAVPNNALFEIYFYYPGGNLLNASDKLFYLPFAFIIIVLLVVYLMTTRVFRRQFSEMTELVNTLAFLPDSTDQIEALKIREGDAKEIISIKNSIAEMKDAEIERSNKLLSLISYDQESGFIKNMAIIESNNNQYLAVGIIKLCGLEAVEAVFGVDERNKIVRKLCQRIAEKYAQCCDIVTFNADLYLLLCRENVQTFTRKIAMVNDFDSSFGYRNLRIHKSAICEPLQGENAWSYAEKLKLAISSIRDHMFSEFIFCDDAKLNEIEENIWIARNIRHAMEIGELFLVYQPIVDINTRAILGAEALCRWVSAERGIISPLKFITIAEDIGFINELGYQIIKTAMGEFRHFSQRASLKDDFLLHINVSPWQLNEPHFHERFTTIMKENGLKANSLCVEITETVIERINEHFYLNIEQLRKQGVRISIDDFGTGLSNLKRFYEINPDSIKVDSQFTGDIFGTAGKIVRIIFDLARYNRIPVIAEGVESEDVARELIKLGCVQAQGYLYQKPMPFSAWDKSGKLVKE
UniProt P75811: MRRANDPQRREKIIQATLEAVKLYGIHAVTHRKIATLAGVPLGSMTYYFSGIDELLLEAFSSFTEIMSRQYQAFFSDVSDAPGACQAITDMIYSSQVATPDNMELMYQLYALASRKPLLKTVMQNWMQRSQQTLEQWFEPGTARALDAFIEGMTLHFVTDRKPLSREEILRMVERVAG
UniProt P52613: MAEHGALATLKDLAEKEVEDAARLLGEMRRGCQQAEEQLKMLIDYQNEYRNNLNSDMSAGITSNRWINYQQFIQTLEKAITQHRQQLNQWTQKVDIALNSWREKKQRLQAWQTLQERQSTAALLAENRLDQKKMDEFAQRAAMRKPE
UniProt P56579: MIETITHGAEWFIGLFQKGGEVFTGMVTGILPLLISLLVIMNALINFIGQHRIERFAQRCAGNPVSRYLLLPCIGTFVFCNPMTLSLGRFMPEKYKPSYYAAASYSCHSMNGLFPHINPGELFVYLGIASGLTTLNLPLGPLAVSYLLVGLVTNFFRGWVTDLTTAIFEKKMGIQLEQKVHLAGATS
UniProt P56614: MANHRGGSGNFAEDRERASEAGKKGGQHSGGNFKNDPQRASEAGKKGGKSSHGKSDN
UniProt P52045: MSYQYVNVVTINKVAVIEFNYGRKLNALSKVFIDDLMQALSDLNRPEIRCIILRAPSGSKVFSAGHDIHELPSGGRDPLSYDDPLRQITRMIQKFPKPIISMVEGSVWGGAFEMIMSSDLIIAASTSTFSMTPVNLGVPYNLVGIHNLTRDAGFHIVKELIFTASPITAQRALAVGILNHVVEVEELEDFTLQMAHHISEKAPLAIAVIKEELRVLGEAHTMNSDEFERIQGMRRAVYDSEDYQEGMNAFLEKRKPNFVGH
UniProt P52627: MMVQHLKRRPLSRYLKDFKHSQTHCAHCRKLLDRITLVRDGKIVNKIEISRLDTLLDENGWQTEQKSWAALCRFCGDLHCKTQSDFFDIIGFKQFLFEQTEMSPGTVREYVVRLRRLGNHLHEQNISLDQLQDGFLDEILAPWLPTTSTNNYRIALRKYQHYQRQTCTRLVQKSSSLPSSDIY
UniProt P52106: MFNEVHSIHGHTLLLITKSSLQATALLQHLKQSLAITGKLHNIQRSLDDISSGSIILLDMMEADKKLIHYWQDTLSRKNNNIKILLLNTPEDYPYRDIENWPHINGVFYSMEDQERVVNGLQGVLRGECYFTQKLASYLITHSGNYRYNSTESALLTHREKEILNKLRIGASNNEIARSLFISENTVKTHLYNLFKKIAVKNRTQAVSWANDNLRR
UniProt P71298: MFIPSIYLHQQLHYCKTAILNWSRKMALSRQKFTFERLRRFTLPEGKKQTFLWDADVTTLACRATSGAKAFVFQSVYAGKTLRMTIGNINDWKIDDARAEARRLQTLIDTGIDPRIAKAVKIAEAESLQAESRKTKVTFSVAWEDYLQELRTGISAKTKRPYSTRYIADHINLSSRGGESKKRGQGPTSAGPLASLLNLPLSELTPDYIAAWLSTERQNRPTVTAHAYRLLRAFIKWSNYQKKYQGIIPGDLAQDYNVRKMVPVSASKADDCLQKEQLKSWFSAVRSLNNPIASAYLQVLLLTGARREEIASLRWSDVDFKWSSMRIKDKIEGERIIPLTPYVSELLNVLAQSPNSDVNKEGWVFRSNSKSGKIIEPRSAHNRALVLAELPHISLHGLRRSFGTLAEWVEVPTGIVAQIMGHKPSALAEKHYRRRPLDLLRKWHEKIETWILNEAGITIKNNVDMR

Compound in this assay: CC1(C)S[C@@H]2[C@H](NC(=O)[C@H](N)c3ccccc3)C(=O)N2[C@H]1C(=O)O [ampicillin]
The assay is described as follows: log2 fold change of tryptic peptide abundance, ligand vs vehicle (limited proteolysis) (log2 ratio); higher = more trypsin-susceptible (destabilized). Conditions: ligand concentration: 10 uM; sample: E. coli crude lysate.
In the case of “UniProt P75796 (peptide sequence: LHQNASREEAMVEAKR, peptide start residue: 133)”, the log2 fold change was -0.448. Next, “UniProt P52096 (peptide sequence: HLAFSVDDIDAAVAHLESHNVK, peptide start residue: 78)”: 0.73; “UniProt P69423 (peptide sequence: NREEENDAEAESEKTEE, peptide start residue: 242)”: -0.0424. Regarding “UniProt P46889 (peptide sequence: AAGIHLVLATQRPSVDVITGLIK, peptide start residue: 1147)”, the log2 fold change was found to be 0.53. “UniProt P75672 (peptide sequence: KTSPYNSRMFTLMR, peptide start residue: 145)”: the log2 fold change was -0.000847. Next, “UniProt P75867 (peptide sequence: WVTFTAR, peptide start residue: 250)”: -0.242. Turning to “UniProt P52086 (peptide sequence: AIGVENA, peptide start residue: 197)”, the log2 fold change amounted to 0.156. Consider “UniProt P52073 (peptide sequence: LEGGEGSVK, peptide start residue: 217)”, for which the log2 fold change was -0.246. Turning to “UniProt P52095 (peptide sequence: KYTFCTPGHMGGTAYQK, peptide start residue: 144)”, the log2 fold change is -0.256. Under “UniProt P52074 (peptide sequence: YHNLLDIGR, peptide start residue: 91)” stands -0.198; under “UniProt P75829 (peptide sequence: ACHGLFPK, peptide start residue: 219)”, 0.239. Next, “UniProt P52636 (peptide sequence: NAESCIDCGK, peptide start residue: 247)”: 0.531; “UniProt P67910 (peptide sequence: KGQIEYIPFPDKLK, peptide start residue: 256)”: 0.12. Take “UniProt P46859 (peptide sequence: VSLIVCSALK, peptide start residue: 82)”: the log2 fold change was 0.151. Under “UniProt P52052 (peptide sequence: EIGLHCMTFASGLR, peptide start residue: 174)” stands 0.141; under “UniProt P46887 (peptide sequence: GKFIPSKDGFSTDQSK, peptide start residue: 60)”, 0.0732; under “UniProt P75694 (peptide sequence: IHGTANIYKKK, peptide start residue: 81)”, 0.468.

As for “UniProt P61887 (peptide sequence: IACLEEIAWR, peptide start residue: 248)”, the log2 fold change was -0.228. Take “UniProt P67662 (peptide sequence: FVTNDPMTLVR, peptide start residue: 218)”: the log2 fold change is -0.669. Consider “UniProt P75822 (peptide sequence: HDLLADDTALR, peptide start residue: 267)”, for which the log2 fold change is -0.23.

Turning to “UniProt P69789 (peptide sequence: LYSKAEYK, peptide start residue: 48)”, the log2 fold change is -0.00545. “UniProt P75800 (peptide sequence: AILGAEALCR, peptide start residue: 557)”: the log2 fold change came to 0.441. For “UniProt P75811 (peptide sequence: IIQATLEAVK, peptide start residue: 13)”, the log2 fold change was -0.203. “UniProt P51981 (peptide sequence: GRYEMVNIK, peptide start residue: 239)”: the log2 fold change is -1.08. Turning to “UniProt P46850 (peptide sequence: EQHFGEEIYVTRK, peptide start residue: 287)”, the log2 fold change was -0.4. Next, “UniProt P75737 (peptide sequence: ELTYLHNMSAQEK, peptide start residue: 84)”: -0.203; “UniProt P52613 (peptide sequence: QSTAALLAENR, peptide start residue: 118)”: 0.497; “UniProt P56579 (peptide sequence: MGIQLEQK, peptide start residue: 172)”: -0.105. As for “UniProt P56614 (peptide sequence: GGSGNFAEDRER, peptide start residue: 6)”, the log2 fold change was -0.171. Next, “UniProt P52045 (peptide sequence: VLGEAHTMNSDEFER, peptide start residue: 215)”: -0.118. On to “UniProt P52627 (peptide sequence: HSQTHCAHCR, peptide start residue: 20)”, for which the log2 fold change worked out at 0.407.

For the target “UniProt P52106 (peptide sequence: TQAVSWANDNLRR, peptide start residue: 204)”, the log2 fold change is -0.318. Under “UniProt P71298 (peptide sequence: KYQGIIPGDLAQDYNVR, peptide start residue: 243)” stands 0.265.

Source of the values: the supplement of paper PMC12819154, “High-throughput peptide-centric local stability assay extends protein–ligand identification to membrane proteins, tissues and bacteria” (Nature Structural & Molecular Biology, 2025).
